Data source: PubChem BioAssay AID1259254 (NCATS, 2017)
The whole screen tested about 59,000 reagents; this is a part drawn at random. Of all reagents, about 1,550 (2.6%) were called active. 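G2 share is only a proxy for re-replication; each gene was hit by three separate siRNAs, and active genes were retested.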 Reagents against one gene are numbered here. Not all columns of the deposit are shown. The record does not give: the amount of reagent.

- Assay: 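Gene knock-downs that lead to re-replication, shown by excess G2 DNA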 (primary screen)
- Cells: human HCT116 colorectal cancer cells
- Reagent: single siRNA against human genes
- Timing: 3 days
- Detection: 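Nuclei stained with Hoechst and imaged; cell-cycle phase assigned by DNA content; G2 share scaled per plate, non-targeting siRNA 0%, GMNN siRNA 100%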
- Reading the numbers: G2 robust z-score: higher = more G2 cells, more excess DNA replication
- Hit rule: 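Active siRNAs have a G2 robust z of 5 or more median absolute deviations over the median, which in these data means about 38% or higher of GMNN control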

| target gene | reagent | G2 robust z-score | Outcome |
| --- | --- | --- | --- |
| HTR1D | 1 | 5.39 | active |
| HTR1D | 2 | -1.4 | inactive |
| HTR1D | 3 | -0.0167 | inactive |
| C2CD2 | 1 | -0.739 | inactive |
| C2CD2 | 2 | 1.36 | inactive |
| C2CD2 | 3 | -0.0835 | inactive |
| RPL34 | 1 | 0.417 | inactive |
| RPL34 | 2 | 0.619 | inactive |
| RPL34 | 3 | 4.58 | inactive |
| ATF7IP2 | 1 | -0.547 | inactive |
| ATF7IP2 | 2 | 2.16 | inactive |
| ATF7IP2 | 3 | -0.0955 | inactive |
| SLC2A7 | 1 | -0.388 | inactive |
| SLC2A7 | 2 | -0.865 | inactive |
| SLC2A7 | 3 | 4.86 | inactive |
| ARHGEF37 | 1 | 0.174 | inactive |
| ARHGEF37 | 2 | -0.307 | inactive |
| ARHGEF37 | 3 | -0.862 | inactive |
| MAB21L1 | 1 | 1.38 | inactive |
| MAB21L1 | 2 | 0.235 | inactive |
| MAB21L1 | 3 | -0.974 | inactive |
| JMJD7-PLA2G4B | 1 | 2.52 | inactive |
| JMJD7-PLA2G4B | 2 | -1.39 | inactive |
| JMJD7-PLA2G4B | 3 | 0.295 | inactive |
| OR6K6 | 1 | -0.672 | inactive |
| OR6K6 | 2 | -0.815 | inactive |
| OR6K6 | 3 | -0.158 | inactive |
| ZSWIM5 | 1 | -0.103 | inactive |
| ZSWIM5 | 2 | -0.196 | inactive |
| ZSWIM5 | 3 | 1.53 | inactive |
| CFAP65 | 1 | -0.149 | inactive |
| CFAP65 | 2 | 0.797 | inactive |
| CFAP65 | 3 | -0.0904 | inactive |
| COMMD1 | 1 | -0.00742 | inactive |
| COMMD1 | 2 | -0.215 | inactive |
| COMMD1 | 3 | 7.03 | active |
| H1-4 | 1 | -1.06 | inactive |
| H1-4 | 2 | -0.643 | inactive |
| H1-4 | 3 | -0.34 | inactive |
| NKD1 | 1 | 0.246 | inactive |
| NKD1 | 2 | 1.28 | inactive |
| NKD1 | 3 | -0.422 | inactive |
| KLF1 | 1 | -0.297 | inactive |
| KLF1 | 2 | -0.386 | inactive |
| KLF1 | 3 | -0.134 | inactive |
| HTR1E | 1 | 0.737 | inactive |
| HTR1E | 2 | -0.201 | inactive |
| HTR1E | 3 | -0.178 | inactive |
| GRPEL1 | 1 | -0.0273 | inactive |
| GRPEL1 | 2 | -1.05 | inactive |
| GRPEL1 | 3 | 0.914 | inactive |
| NOL4L-DT | 1 | 1.57 | inactive |
| NOL4L-DT | 2 | 3.64 | inactive |
| NOL4L-DT | 3 | 0.247 | inactive |
| ZNF818P | 1 | -0.204 | inactive |
| ZNF818P | 2 | 1.08 | inactive |
| ZNF818P | 3 | 2.76 | inactive |
| RPP25 | 1 | 2.01 | inactive |
| RPP25 | 2 | -0.363 | inactive |
| RPP25 | 3 | 0.627 | inactive |
| CCS | 1 | 0.695 | inactive |
| CCS | 2 | -0.816 | inactive |
| CCS | 3 | -0.193 | inactive |
| IGLL3P | 1 | -0.686 | inactive |
| IGLL3P | 2 | 0.86 | inactive |
| IGLL3P | 3 | -0.291 | inactive |
| COPS7A | 1 | -0.0545 | inactive |
| COPS7A | 2 | 7.14 | active |
| COPS7A | 3 | -0.717 | inactive |
| AKTIP | 1 | 0.178 | inactive |
| AKTIP | 2 | 0.247 | inactive |
| AKTIP | 3 | 0.317 | inactive |
| RBM26 | 1 | -0.544 | inactive |
| RBM26 | 2 | -0.151 | inactive |
| RBM26 | 3 | -0.191 | inactive |
| BTBD6 | 1 | -0.121 | inactive |
| BTBD6 | 2 | -0.703 | inactive |
| BTBD6 | 3 | 4.3 | inactive |
| ARX | 1 | 2.63 | inactive |
| ARX | 2 | 1.21 | inactive |
| ARX | 3 | 2.49 | inactive |
| LRRC74B | 1 | 1.78 | inactive |
| LRRC74B | 2 | -0.116 | inactive |
| LRRC74B | 3 | 1.95 | inactive |
| RBFOX1 | 1 | 2.45 | inactive |
| RBFOX1 | 2 | 3.98 | inactive |
| RBFOX1 | 3 | 1.88 | inactive |

Hits (from the list above):
| target gene | reagent | G2 robust z-score | Outcome |
| --- | --- | --- | --- |
| HTR1D | 1 | 5.39 | active |
| COMMD1 | 3 | 7.03 | active |
| COPS7A | 2 | 7.14 | active |
